Counter-ions that a name gives are not always drawn. The campaign covered roughly 5,300 compounds. About 130 (2.5%) showed an effect of 50% or more. Some of the results follow.

The subject of the assay is M. mycetomatis strain mm55. To be noted: primary screen, metabolic activity vs growth control; 96 h, 2 µM; inhibitor.
Regarding `COc1cc(C)c2c(Oc3cccc(C(F)(F)F)c3)c(OC)cc(NC(C)CCCN)c2n1` (stereo not drawn) [ONC0005464, tafenoquine], the “% viability” value is listed as 90.07%.

On to `NCCCCCCCCCCNS(=O)(=O)c1cccc2c(Cl)cccc12` [ONC0002708, a7], for which the “% viability” value is given as 47.48%.

For the molecule `C#C[C@]1(O)CC[C@H]2[C@@H]3CCC4=CCCC[C@@H]4[C@H]3C(=C)C[C@@]21CC` [ONC0005535, desogestrel], the “% viability” value worked out at 146.6%.

Consider `CC(C)C(=O)Nc1ccc([N+](=O)[O-])c(C(F)(F)F)c1` [ONC0003182, flutamide], for which the “% viability” value is listed as 96.12%.

On to `OC[C@H]1O[C@@H](n2cnc3c(NC4CCCC4)nc(Cl)nc32)[C@H](O)[C@@H]1O` [ONC0003057, 2chloron6cyclopentyladenosine], for which the “% viability” value turned out to be 61.63%.

Consider `CC(C)NC(=O)c1ccc(C#Cc2ccncc2)cn1` [ONC0003042, lsn2463359], for which the “% viability” value worked out at 112.3%.

Turning to `CC(=O)Oc1cc2c(s1)CCN(C(C(=O)C1CC1)c1ccccc1F)C2` (stereo not drawn) [ONC0001894, prasugrel], the “% viability” value stood at 72.97%.

For the molecule `CS(=O)(=O)N(Cc1ccco1)CC(O)Cn1c2ccccc2c2ccccc21` (stereo not drawn) [ONC0000142, kl001], the “% viability” value is on record as 116.3%.

As to `CC(O)CCCCn1c(=O)c2c(ncn2C)n(C)c1=O` (stereo not drawn) [ONC0005607, ü¾Œ–ˆ¼lisofylline], the “% viability” value was determined as 79.45%.

Take `CO/N=C(\C(=O)N[C@@H]1C(=O)N2C(C(=O)O)=C(C)CS[C@H]12)c1csc(N)n1` [ONC0005489, cefetamet]: the “% viability” value came to 95.62%.

For `S=C(NCc1ccc2c(c1)OCO2)N1CCN(c2ncnc3c2oc2ccccc23)CC1` [ONC0004908, amuvatinib mp470], the “% viability” value turned out to be 75.33%.

In the case of `OCCN1C[C@H](O)[C@@H](O)[C@H](O)[C@H]1CO` [ONC0003900, miglitol], the “% viability” value worked out at 63.13%.

Regarding `CCC(=O)NC1CCc2cccc(OC)c2C1` (stereo not drawn) [ONC0000834, 8mpdot], the “% viability” value stood at 64.2%.

In the case of `C[n+]1ccccc1CN=O` [ONC0005627, pralidoximechloride], the “% viability” value is reported as 80.2%.

In the case of `CCCC1(CCC)CCC2(CCN(CCCN(CC)CC)C2)CC1` [ONC0001653, atiprimod], the “% viability” value was found to be 63.1%.

As to `CC1=CC[C@@H](C(C)(C)O)C[C@@H]1O` [ONC0004123, sobrepin], the “% viability” value was 88.87%.

For `C[C@H](c1ccc(F)cc1CCCC(=O)O)N(c1cc(F)ccc1F)S(=O)(=O)c1ccc(Cl)cc1` [ONC0004701, bms 299897], the “% viability” value was 117.6%.

On to `N[C@@H](Cc1cc(-c2ccc(Cl)cc2Cl)cc(CP(=O)(O)O)c1O)C(=O)O` [ONC0001482, sdz220040], for which the “% viability” value is 68.11%.

Consider `CC1(C)CCC2=C(O1)c1ccccc1C(=O)C2=O` [ONC0001111, lapachone], for which the “% viability” value turned out to be 52.37%.

For `COc1cc(Oc2ccnc3cc(OC)c(OC)cc23)ccc1NC(=O)NC(C)c1nccs1` (stereo not drawn) [ONC0002728, ki20227], the “% viability” value is given as 85.43%.

On to `CCOC(=O)[C@@]1(CCCCCCOc2ccc(Cl)cc2)CO1` [ONC0001271, etomoxir], for which the “% viability” value was found to be 56.3%.

On to `CC(C)(C)c1cc(OC(=O)c2cccs2)ccc1O` [ONC0003805, 2methoxyphenyl 24isobutylphenylpropanoate], for which the “% viability” value is given as 77.07%.

As for `COc1cc(OC)c(C(=O)CCCCN2CCC3(CC2)NC(=O)NC3=O)cc1NS(=O)(=O)c1ccc(C(F)(F)F)cc1` [ONC0002710, rs102221], the “% viability” value stood at 67.76%.

Turning to `Cn1c(Nc2ccc(C(F)(F)F)cc2)nc2cc(Oc3ccnc(-c4ncc(C(F)(F)F)[nH]4)c3)ccc21` [ONC0005005, raf265 chir265], the “% viability” value turned out to be 41.37%.

Turning to `NC(=O)c1cnc2[nH]ccc2c1N[C@@H]1C2C[C@@H]3C[C@H]1C[C@](O)(C2)C3` [ONC0004336, peficitinib asp015k jnj54781532], the “% viability” value amounted to 124.4%.

For the molecule `COC(=O)C1=C(C)NC(C)=C(C(=O)OC(C)C)C1c1cccc2nonc12` (stereo not drawn) [ONC0001749, isradipine], the “% viability” value is reported as 95.55%.

Regarding `O=C1OC(OC(=O)c2cccnc2Nc2cccc(C(F)(F)F)c2)c2ccccc21` (stereo not drawn) [ONC0002996, talniflumate], the “% viability” value was found to be 108.3%.

For the molecule `O=C(O)c1cc(N2N=C(C(F)(F)F)/C(=C/c3ccc(-c4ccccc4)o3)C2=O)ccc1Cl` [ONC0000997, en460], the “% viability” value was found to be 106.5%.

Take `CC(=O)SCC(Cc1ccccc1)C(=O)NCC(=O)OCc1ccccc1` (stereo not drawn) [ONC0004207, racecadotril]: the “% viability” value was 101.8%.

For the molecule `C[C@H](CCC(=O)O)[C@H]1CC[C@H]2[C@@H]3CC[C@@H]4C[C@H](O)CC[C@]4(C)[C@H]3CC[C@]12C` [ONC0004527, lithocholic acid], the “% viability” value was 65.89%.

For the molecule `N[C@@H](CSCCCO)C(=O)O` [ONC0004725, fudosteine], the “% viability” value is 82.66%.

Regarding `COc1ccc(C(CN(C)C)C2(O)CCCCC2)cc1` (stereo not drawn) [ONC0002399, venlafaxine hydrochloride], the “% viability” value stood at 83.11%.

Turning to `O=C(/C=C/N1C[C@H]2C[C@@H]1CN2c1ccccn1)c1ccccc1O` [ONC0004408, pfi3], the “% viability” value stood at 134.3%.

With `CC1COc2c(N3CCN(C)CC3)c(F)cc3c(=O)c(C(=O)O)cn1c23` (stereo not drawn) [ONC0003885, ofloxacin], the “% viability” value is listed as 77.75%.

Turning to `N[C@@H](C(=O)O)[C@@H](OCc1ccccc1)C(=O)O.N[C@H](C(=O)O)[C@H](OCc1ccccc1)C(=O)O` [ONC0000803, tboadl], the “% viability” value stood at 62.99%.

For `COCC(=O)Nc1c(I)c(C(=O)NCC(O)CO)c(I)c(C(=O)N(C)CC(O)CO)c1I` (stereo not drawn) [ONC0002916, iopromide], the “% viability” value was 66.94%.

`CC(C)(C(=O)O)c1ccc(C(=O)CCCN2CCC(OC(c3ccccc3)c3ccccc3)CC2)cc1` [ONC0002774, carebastine]: the “% viability” value is on record as 121.8%.

Regarding `CN1CCN(c2cc3c(cc2F)c(=O)c(C(=O)O)cn3-c2ccc(F)cc2)CC1` [ONC0002850, difloxacin hydrochloride], the “% viability” value amounted to 104.7%.

For the molecule `O=C(O)CCCC[C@@H]1SC[C@@H]2NC(=O)N[C@@H]21` [ONC0000517, biotin], the “% viability” value stood at 93.92%.

With `Cc1cccc(OCC(O)CNC(C)(C)C)c1C` (stereo not drawn) [ONC0002362, xibenolol], the “% viability” value came out at 46.41%.

Consider `C[C@H](Nc1ncnc2[nH]cnc12)c1cc2cccc(Cl)c2c(=O)n1-c1ccccc1` [ONC0004561, duvelisib ipi145 ink1197], for which the “% viability” value is on record as 69.33%.

Take `CCc1ccc(C(=O)C(C)CN2CCCCC2)cc1` (stereo not drawn) [ONC0002786, eperisone hcl]: the “% viability” value is 132%.

As to `FCc1ccc(OCCOc2ccc(Cl)cc2Cl)c(Cl)n1` [ONC0000095, cym50260], the “% viability” value turned out to be 81.52%.

For `CC(C)(C)c1ccc2cc(C#N)c(C#N)cc2c1` [ONC0003604, brd9876], the “% viability” value came out at 97.5%.

Turning to `CC(C)Cc1ccc(C(C)C(=O)O)cc1` (stereo not drawn) [ONC0000377, ibuprofen], the “% viability” value worked out at 74.77%.

Consider `COc1ccc(CN2CCN(C(c3ccc(F)cc3)c3ccc(F)cc3)CC2)c(OC)c1OC` [ONC0004196, lomerizine hydrochloride], for which the “% viability” value was 80.31%.

For `CC1(O)C(O)C(CO)OC1n1ccc(N)nc1=O` (stereo not drawn) [ONC0003575, nm107 2cmethylcytidine], the “% viability” value turned out to be 89.59%.

As for `CN(C(=O)c1c(O)c2ccccc2n(C)c1=O)c1ccccc1` [ONC0001699, roquinimex], the “% viability” value came to 64.36%.

`C=C1NC[C@H](O)[C@@H](C(=O)O)N1` [ONC0005453, 5hydroxyectoine]: the “% viability” value stood at 82.42%.

On to `COCCc1ccc(OCC(O)CNC(C)C)cc1` (stereo not drawn) [ONC0000497, metoprolol tartrate], for which the “% viability” value is listed as 61.5%.

Turning to `CCN1CCN(Cc2ccc(Nc3ncc(F)c(-c4cc(F)c5nc(C)n(C(C)C)c5c4)n3)nc2)CC1` [ONC0004445, abemaciclib ly2835219], the “% viability” value is listed as 113.8%.

For the molecule `Nc1nc2[nH]cc(CCc3ccc(C(=O)N[C@@H](CCC(=O)O)C(=O)O)cc3)c2c(=O)[nH]1` [ONC0000505, pemetrexed], the “% viability” value is recorded as 97.55%.

For the molecule `COc1ccc2c(c1)C(C(=O)N(Cc1ccc(N(C)C)cc1)c1ccc(C(C)C)cc1)CCC2` (stereo not drawn) [ONC0001356, w54011], the “% viability” value came to 87.64%.

On to `COc1ccc(C(=O)c2ccccc2O)c(O)c1` [ONC0000693, dioxybenzone], for which the “% viability” value came to 133.1%.

As for `Cc1ccc(OCCSc2ncccn2)c(Br)c1` [ONC0003579, zln024], the “% viability” value was 91.48%.

Consider `C[C@@H]1COCCN1c1cc(=O)n2c(n1)N(Cc1cncc(Cl)c1)[C@H](C(F)(F)F)CC2` [ONC0002229, sar405], for which the “% viability” value came out at 105.5%.

For `COc1ccc(Cl)cc1[C@]1(F)C(=O)Nc2cc(C(F)(F)F)ccc21` [ONC0000893, flindokalner], the “% viability” value is 76.01%.

For `CC(=O)Oc1ccccc1C(=O)Oc1cccc(CO[N+](=O)[O-])c1` [ONC0003513, noasa], the “% viability” value worked out at 61.82%.

With `C[C@]12CCC(=O)C=C1CCC1C2[C@@H](O)C[C@@]2(C)C1CC[C@]2(O)C(=O)COC(=O)CCC(=O)O` (stereo partly drawn) [ONC0000363, hydrocortisone hemisuccinate], the “% viability” value is 75.53%.

For `O=C(OCCOCCO)c1ccccc1Nc1cccc(C(F)(F)F)c1` [ONC0002216, etofenamate], the “% viability” value is reported as 64.05%.

On to `Cc1cc(C)c2c(N)c(C(=O)NCc3ccc(Cl)cc3)sc2n1` [ONC0002558, vu10010], for which the “% viability” value was 70.5%.

Consider `COc1ccc2cccc(N3CCN(CCNC(=O)c4ccc(F)cc4)CC3)c2c1` [ONC0002715, s14506], for which the “% viability” value was 83.12%.

As for `Fc1ccc2c(CCNCc3cccc(OCC(F)(F)C(F)F)c3)c[nH]c2c1` [ONC0001771, idalopirdine hydrochloride], the “% viability” value was 93.48%.
